# Measured values taken from paper PMC12040169 (PLOS Biology, 2025).
# The other results are listed elsewhere or left out.
# Tested on: T1, CTL2-GFP (C. trachomatis L2/434/Bu, GFP-expressing)
# T1 construct: L2/434/Bu, GFP-expressing
# Set-up: species or system HeLa; Intracellular C. trachomatis growth in HeLa cells, bulk GFP fluorescence relative to DMSO
# Conditions: bulk GFP, single well; 28.5 h, 10 µM; inhibitor
row,Structure (SMILES),% of control remaining [%]
1,N#Cc1cc2c(=O)n(-c3ccccn3)ccc2[nH]c1=O [CBK288119],127.07
2,NC(Cc1ccc(Cl)cc1)C(=O)N(CCc1cc(C(F)(F)F)cc(C(F)(F)F)c1)c1cccc2ccccc12 (stereo not shown) [CBK008674T],71.8934
3,O=C1N[C@]2(Cc3ccccc31)CN(Cc1ccccc1)C[C@H]2CO [CBK284743],128.291
4,O=C1NC2(CCC2)C(=O)N1Cc1nn(-c2ccccc2)c2c1CCC2 [CBK306383],128.721
5,Cc1cc(C(=O)Nc2cccc3cc[nH]c23)ccc1Cl [CBK160078],147.644
6,Cc1cc(NS(=O)(=O)c2csc3ccccc23)n(C)n1 [CBK067251],138.924
7,Cn1nc2c(cc1=O)CN(C(=O)c1ccoc1)CC2 [CBK304330],115.182
8,CC1(C)CC(N2CN(C3CC(C)(C)NC(C)(C)C3)CN(C3CC(C)(C)NC(C)(C)C3)C2)CC(C)(C)N1 [CBK261985],107.203
9,O=C(NCCc1c[nH]cn1)c1ccccc1-n1cccc1 [CBK161000],121.32
10,COc1nccnc1N1CCN(CCCC#N)CC1 [CBK084225],105.813
11,Cc1cc(C)nc(N2CCC(C3CC=CCN(CCc4ccccc4)C3=O)CC2)n1 (stereo not shown) [CBK285575],98.0009
12,O=C(O)CCc1ccc(-c2cccs2)n1-c1ccc(Cl)c(Cl)c1 [CBK264797],129.912
13,Cc1ccc(NC(=O)NC(=O)C2CCN(S(C)(=O)=O)CC2)cc1 [CBK034863],100
14,CCCCOc1ccc(-c2nnn(C(C)C(=O)O)n2)cc1 (stereo not shown) [CBK070540],61.2591
15,COc1ccc(CNC(=O)C2CCCN(S(=O)(=O)c3cccs3)C2)cc1 (stereo not shown) [CBK304628],113.47
16,COc1ccc(OC)c(NC(=O)c2ccc3nccnc3c2)c1 [CBK268997],135.469
17,CCc1ccc(Nc2nc(N)nc(CN3CCN(c4ccccn4)CC3)n2)cc1 [CBK270064],93.6721
18,COc1cccc(OC)c1OCCN1CCC(CNC(=O)Nc2cccc(C(F)(F)F)c2)CC1 [CBK051512T],121.008
19,CN1CC(c2ccccc2)C2(CCNCC2)C1 (stereo not shown) [CBK282225],106.158
20,O=C(c1cccnc1)N1CCN(S(=O)(=O)c2ccccc2[N+](=O)[O-])CC1 [CBK264227],100
21,CCOC(=O)c1c(NS(=O)(=O)Cc2ccccc2[N+](=O)[O-])sc2c1CCCC2 [CBK004651],112.98
22,COc1cc(CN2CCN(c3ccccn3)CC2)ccc1O [CBK261537],98.5049

# 3 compounds from above, ordered by heavy-atom count, rising:
row,Structure (SMILES),% of control remaining [%]
16,COc1ccc(OC)c(NC(=O)c2ccc3nccnc3c2)c1 [CBK268997],135.469
11,Cc1cc(C)nc(N2CCC(C3CC=CCN(CCc4ccccc4)C3=O)CC2)n1 (stereo not shown) [CBK285575],98.0009
18,COc1cccc(OC)c1OCCN1CCC(CNC(=O)Nc2cccc(C(F)(F)F)c2)CC1 [CBK051512T],121.008
